Earlier results, collected in patent US10300104B2, “Multi-arm linker for treating rejection reaction in transplantation” (Immunwork Inc., priority 2015, dated 2019).
For at least one compound, name, drawing or mass did not settle the structure.

Details: clinical trials, kidney transplantation; cited from earlier work

CCCCCCCCc1ccc(CCC(N)(CO)CO)cc1 [fingolimod]
efficacy compared with other established, standard care: not found to be better
